No constants are given. Whether binding was seen depends on the method and setting. In cells and extracts the contact can be indirect. A result given as binding can be weak or reduced; the word gives no strength.
What was measured:
[1] = target: Halo-SETD2CΔSHI 4 (human) (UniProt Q9BYW2); assay: pull-down; Halo-tagged bait expressed in 293T cells, captured from extracts on Magne HaloTag beads (wash 300 mM NaCl), eluted with TEV protease; endogenous preys seen by western blotting and silver staining; for SETD2CΔSRI with and without RNase treatment
[2] = target: Halo-SETD2CΔSHI 5 (human) (UniProt Q9BYW2); assay: as above

Amino acid sequences for entries named in this document (tags omitted). A change or cut given only in a name is not applied to a line headed by its entry.
UniProt Q9BYW2: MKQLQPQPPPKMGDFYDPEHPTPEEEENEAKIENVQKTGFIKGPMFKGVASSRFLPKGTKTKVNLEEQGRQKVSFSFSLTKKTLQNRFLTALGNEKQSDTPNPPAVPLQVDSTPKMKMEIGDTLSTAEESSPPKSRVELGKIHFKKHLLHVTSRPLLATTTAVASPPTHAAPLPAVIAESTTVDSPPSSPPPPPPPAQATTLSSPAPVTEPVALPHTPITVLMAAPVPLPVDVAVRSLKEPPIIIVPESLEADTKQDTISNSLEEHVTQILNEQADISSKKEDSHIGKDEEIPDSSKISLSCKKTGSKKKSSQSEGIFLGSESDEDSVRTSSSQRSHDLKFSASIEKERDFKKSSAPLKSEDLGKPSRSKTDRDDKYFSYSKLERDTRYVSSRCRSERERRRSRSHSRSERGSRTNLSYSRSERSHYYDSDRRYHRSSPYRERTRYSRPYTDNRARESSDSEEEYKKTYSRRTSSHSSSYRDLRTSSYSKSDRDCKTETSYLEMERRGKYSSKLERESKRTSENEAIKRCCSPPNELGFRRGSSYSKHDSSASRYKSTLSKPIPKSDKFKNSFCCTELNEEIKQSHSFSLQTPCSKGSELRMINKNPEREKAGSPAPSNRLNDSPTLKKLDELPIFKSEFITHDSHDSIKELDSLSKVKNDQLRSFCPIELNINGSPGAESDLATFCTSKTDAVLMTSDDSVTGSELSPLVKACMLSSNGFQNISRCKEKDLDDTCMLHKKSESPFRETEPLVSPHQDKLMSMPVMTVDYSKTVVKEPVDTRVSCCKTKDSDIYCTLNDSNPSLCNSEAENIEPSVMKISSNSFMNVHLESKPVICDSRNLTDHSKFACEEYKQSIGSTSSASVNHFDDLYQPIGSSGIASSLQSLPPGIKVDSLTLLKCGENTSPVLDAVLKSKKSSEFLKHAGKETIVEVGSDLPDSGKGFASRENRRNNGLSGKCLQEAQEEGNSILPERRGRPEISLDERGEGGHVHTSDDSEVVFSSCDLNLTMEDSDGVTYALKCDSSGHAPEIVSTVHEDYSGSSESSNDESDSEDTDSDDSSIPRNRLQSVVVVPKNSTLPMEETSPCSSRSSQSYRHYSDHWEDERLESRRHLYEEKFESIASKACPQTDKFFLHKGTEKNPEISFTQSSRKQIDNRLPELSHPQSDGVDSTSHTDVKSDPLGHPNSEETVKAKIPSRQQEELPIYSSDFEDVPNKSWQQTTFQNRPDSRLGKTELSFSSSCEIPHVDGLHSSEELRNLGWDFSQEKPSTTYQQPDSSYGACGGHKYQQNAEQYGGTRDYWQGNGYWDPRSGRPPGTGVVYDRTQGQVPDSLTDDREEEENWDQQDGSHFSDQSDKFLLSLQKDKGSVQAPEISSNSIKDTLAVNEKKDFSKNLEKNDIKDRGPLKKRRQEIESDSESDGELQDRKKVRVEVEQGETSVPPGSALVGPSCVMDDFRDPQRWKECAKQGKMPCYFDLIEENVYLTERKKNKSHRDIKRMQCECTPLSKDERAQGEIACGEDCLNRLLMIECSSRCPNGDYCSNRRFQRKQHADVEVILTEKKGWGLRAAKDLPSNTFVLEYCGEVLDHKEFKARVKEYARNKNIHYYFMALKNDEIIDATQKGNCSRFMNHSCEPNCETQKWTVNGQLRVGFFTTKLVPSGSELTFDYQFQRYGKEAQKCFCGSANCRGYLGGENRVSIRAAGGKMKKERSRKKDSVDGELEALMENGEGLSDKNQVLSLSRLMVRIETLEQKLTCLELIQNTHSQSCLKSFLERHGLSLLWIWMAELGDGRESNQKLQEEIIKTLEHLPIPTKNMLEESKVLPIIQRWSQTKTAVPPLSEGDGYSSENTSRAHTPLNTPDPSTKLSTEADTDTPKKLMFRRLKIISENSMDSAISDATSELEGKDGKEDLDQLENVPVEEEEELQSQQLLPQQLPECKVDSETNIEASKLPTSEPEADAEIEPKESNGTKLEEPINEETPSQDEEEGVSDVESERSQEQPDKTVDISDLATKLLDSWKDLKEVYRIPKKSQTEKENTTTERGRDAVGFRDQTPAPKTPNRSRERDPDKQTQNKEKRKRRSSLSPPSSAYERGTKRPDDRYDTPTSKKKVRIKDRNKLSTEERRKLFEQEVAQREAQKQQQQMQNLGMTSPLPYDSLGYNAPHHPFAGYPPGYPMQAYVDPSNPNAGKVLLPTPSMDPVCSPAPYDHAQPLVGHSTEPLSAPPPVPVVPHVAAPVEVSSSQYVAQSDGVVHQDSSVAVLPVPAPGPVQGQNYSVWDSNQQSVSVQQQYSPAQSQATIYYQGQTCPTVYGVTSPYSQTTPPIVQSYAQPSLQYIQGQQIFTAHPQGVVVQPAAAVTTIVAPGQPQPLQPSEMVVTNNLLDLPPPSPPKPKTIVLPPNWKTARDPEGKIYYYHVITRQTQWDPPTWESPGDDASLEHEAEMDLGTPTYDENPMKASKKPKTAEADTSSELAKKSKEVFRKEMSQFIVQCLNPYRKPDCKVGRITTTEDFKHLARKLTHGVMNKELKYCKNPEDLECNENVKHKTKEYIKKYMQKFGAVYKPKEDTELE

binding [1]: binds | binding [2]: binds
B1: hnRNP L (endogenous) (protein, UniProt P14866 1-589)
chain: MSRRLLPRAEKRRRRLEQRQQPDEQRRRSGAMVKMAAAGGGGGGGRYYGGGSEGGRAPKRLKTDNAGDQHGGGGGGGGGAGAAGGGGGGENYDDPHKTPASPVVHIRGLIDGVVEADLVEALQEFGPISYVVVMPKKRQALVEFEDVLGACNAVNYAADNQIYIAGHPAFVNYSTSQKISRPGDSDDSRSVNSVLLFTILNPIYSITTDVLYTICNPCGPVQRIVIFRKNGVQAMVEFDSVQSAQRAKASLNGADIYSGCCTLKIEYAKPTRLNVFKNDQDTWDYTNPNLSGQGDPGSNPNKRQRQPPLLGDHPAEYGGPHGGYHSHYHDEGYGPPPPHYEGRRMGPPVGGHRRGPSRYGPQYGHPPPPPPPPEYGPHADSPVLMVYGLDQSKMNCDRVFNVFCLYGNVEKVKFMKSKPGAAMVEMADGYAVDRAITHLNNNFMFGQKLNVCVSKQPAIMPGQSYGLEDGSCSYKDFSESRNNRFSTPEQAAKNRIQHPSNVLHFFNAPLEVTEENFFEICDELGVKRPSSVKVFSGKSERSSSGLLEWESKSDALETLGFLNHYQMKNPNGPYPYTLKLCFSTAQHAS

Reference: PMC8575775, “Structural basis of the interaction between SETD2 methyltransferase and hnRNP L paralogs for governing co-transcriptional splicing” (Nature Communications, 2021)
